The results in this text go back to PMC5996148.

Sequences of proteins named here, by UniProt entry; tags and fusion partners are left off. A change or cut given only in a name is not applied to a line headed by its entry.
UniProt P09471: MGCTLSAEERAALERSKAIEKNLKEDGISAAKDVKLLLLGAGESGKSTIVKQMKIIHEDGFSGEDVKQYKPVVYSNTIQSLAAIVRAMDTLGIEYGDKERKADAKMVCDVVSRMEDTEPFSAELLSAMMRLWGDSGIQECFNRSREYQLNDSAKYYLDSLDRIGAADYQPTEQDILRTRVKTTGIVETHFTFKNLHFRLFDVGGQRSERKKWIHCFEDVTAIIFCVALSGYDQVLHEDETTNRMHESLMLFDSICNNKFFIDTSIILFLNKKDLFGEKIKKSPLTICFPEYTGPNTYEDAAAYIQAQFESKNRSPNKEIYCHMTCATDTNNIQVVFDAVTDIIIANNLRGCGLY

Holding throughout (assay): protein microarray (ProtoArray v5.0), streptavidin-Alexa Fluor 647
Holding throughout (conditions): 3'-biotin; 20 mM Tris (pH 7.5), 5 mM MgCl2, 100 mM KCl, 0.1% Tween-20, A/T-rich and random oligonucleotide blockers; temperature not stated; high values mean tight binding

The target in one experiment is GNAO1 (UniProt P09471).
The next experiment concerns GNG13 (human).
For another experiment, the system named is GNG4 (human).
The subject of another experiment is GNGT1 (human).
The subject of another experiment is GNMT (human).
Another experiment has as its system GNPTAB (human).
The test system of the next experiment is GOLPH2 (human).
In a further experiment the test system is GOSR1 (human).
A further experiment has as its system GPD1 (human).
Experiment [1] concerns GPI transamidase component PIG-S (human).

The other results are listed elsewhere or left out. For some of these results: The source does not settle which construct or isoform was used.

Take “GGGGACAGGGGTATGGGGAGGGG [G4-3 biotinylated (CtG)]”: the binding signal was -0.301 z-score with GNAO1; -0.344 z-score in the experiment with GNG13 (human); -0.327 z-score with GNG4 (human); -0.326 z-score with GNGT1 (human); -0.321 z-score with GNMT (human); -0.305 z-score with GNPTAB (human). For the same sequence, the binding signal in the experiment on GOLPH2 (human) was -0.305 z-score; in the experiment on GOSR1 (human) it was -0.328 z-score; with GPD1 (human) it was -0.341 z-score; in [1] it was -0.321 z-score.
